Experimental data: paper PMC8500223
No constants are given. Whether binding was seen depends on the method and setting. Binding seen in cells or lysates may run through a third protein. Some entries that bind do so weakly or less than the wild type. Tags and fused reporters may be left off the sequences shown.

By UniProt entry, the sequences of proteins in these tests, tags left out.
UniProt Q5DTW7: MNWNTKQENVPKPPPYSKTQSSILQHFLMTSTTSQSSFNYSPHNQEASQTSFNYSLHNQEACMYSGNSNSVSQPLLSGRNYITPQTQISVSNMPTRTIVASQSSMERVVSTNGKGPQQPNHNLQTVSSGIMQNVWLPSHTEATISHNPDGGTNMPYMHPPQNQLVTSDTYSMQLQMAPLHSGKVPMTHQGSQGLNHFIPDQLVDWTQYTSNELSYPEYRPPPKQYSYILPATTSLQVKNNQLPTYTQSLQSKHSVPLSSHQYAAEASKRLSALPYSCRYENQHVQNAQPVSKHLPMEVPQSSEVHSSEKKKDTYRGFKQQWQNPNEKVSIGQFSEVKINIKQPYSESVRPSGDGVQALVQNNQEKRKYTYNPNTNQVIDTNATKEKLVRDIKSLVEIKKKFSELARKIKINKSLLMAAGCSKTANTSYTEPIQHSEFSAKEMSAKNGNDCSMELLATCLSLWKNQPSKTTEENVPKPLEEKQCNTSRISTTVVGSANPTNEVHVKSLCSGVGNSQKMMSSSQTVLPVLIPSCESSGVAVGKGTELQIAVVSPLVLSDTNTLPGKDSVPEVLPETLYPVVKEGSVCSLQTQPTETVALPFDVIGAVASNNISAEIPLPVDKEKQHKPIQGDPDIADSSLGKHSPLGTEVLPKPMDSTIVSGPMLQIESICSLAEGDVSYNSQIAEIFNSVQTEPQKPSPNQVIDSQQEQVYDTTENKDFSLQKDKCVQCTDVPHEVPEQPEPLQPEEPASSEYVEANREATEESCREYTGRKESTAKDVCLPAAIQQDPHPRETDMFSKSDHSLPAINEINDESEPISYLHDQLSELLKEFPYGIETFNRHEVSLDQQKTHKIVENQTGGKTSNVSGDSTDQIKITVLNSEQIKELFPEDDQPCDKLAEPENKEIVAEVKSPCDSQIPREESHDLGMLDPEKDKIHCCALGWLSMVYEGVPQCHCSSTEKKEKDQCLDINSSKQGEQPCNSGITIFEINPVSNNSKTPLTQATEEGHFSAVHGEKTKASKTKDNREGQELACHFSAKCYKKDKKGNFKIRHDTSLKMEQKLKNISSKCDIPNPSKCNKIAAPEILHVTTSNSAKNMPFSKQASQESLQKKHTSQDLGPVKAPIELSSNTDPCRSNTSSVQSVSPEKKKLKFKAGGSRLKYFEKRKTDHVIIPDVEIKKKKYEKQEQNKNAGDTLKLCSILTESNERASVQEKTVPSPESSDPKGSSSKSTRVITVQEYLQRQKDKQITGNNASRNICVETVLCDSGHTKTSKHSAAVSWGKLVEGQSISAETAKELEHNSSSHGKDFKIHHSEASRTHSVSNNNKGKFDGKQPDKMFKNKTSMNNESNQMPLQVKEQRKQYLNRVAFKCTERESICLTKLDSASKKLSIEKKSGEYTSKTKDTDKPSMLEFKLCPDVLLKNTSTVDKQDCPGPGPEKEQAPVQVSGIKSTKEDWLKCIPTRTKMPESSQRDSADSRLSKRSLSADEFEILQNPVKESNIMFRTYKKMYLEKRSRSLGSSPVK

Target: Retroelement silencing factor 1 (RESF1), Flag-tagged (mouse) (UniProt Q5DTW7)
Assay: co-IP; Nuclear extracts of E14/T ESCs co-transfected with Flag-RESF1 and HA-NANOG; NE buffer (20 mM Hepes pH 7.6, 350 mM KCl, 0.2% NP-40), benzonase-treated; anti-FLAG M2 affinity beads, 2 h at room temperature; immunoblot; control cells expressed HA-NANOG alone

B1: NANOG, HA-tagged (protein, UniProt Q80Z64 1-305)
chain: MSVGLPGPHSLPSSEEASNSGNASSMPAVFHPENYSCLQGSATEMLCTEAASPRPSSEDLPLQGSPDSSTSPKQKLSSPEADKGPEEEENKVLARKQKMRTVFSQAQLCALKDRFQKQKYLSLQQMQELSSILNLSYKQVKTWFQNQRMKCKRWQKNQWLKTSNGLIQKGSAPVEYPSIHCSYPQGYLVNASGSLSMWGSQTWTNPTWSSQTWTNPTWNNQTWTNPTWSSQAWTAQSWNGQPWNAAPLHNFGEDFLQPYVQLQQNFSASDLEVNLEATRESHAHFSTPQALELFLNYSVTPPGEI
Question: B1 was tested. Which binding did it give?
Answer: The binding was “binds”.
